PubChem BioAssay AID1259308 | NCATS – 2017

Screen: 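Knock-downs that increase output of a recombinant reporter protein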 (primary screen)
System: human HEK293 embryonic kidney cells stably expressing firefly luciferase (HEK-CMV-Luc2-Hygro)
Reagents: single siRNA against human genes, 0.8 pmol siRNA per well
Timing: 72 h
Measured: 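Luciferase light (ONE-Glo) measured on one replicate plate set and viability (CellTiter-Glo) on the other, scaled to a negative control siRNA, with robust z-scores and luciferase per cell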
Scale: total luciferase, z-score and total luciferase, % of control: higher = more reporter protein produced; luciferase per cell, z-score: higher = more reporter output per viable cell
Rule for the call: 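An siRNA counts as active if its total luciferase robust z-score exceeds 3; genes with two or more such siRNAs out of three were retested with fresh siRNAs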
Calls: active = raised luciferase; inactive = no rise
Here is one part, drawn at random, of about 59,000 deposited reagents. Of all reagents, about 1,510 (2.6%) are marked active. 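Calls use total luciferase alone and ignore viability, so some active siRNAs may act by altering cell number.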 A number with no mark means an inactive call. Reagents against one gene are numbered here. Not all columns of the deposit are shown.

gene | reagent | total luciferase, z-score | total luciferase, % of control | luciferase per cell, z-score
LINC01556 | 1 | 0.369 | 89.2 | -0.151
LINC01556 | 2 | -1.17 | 58.6 | -0.73
LINC01556 | 3 | -0.786 | 66.3 | -0.816
ARID1A | 1 | 0.394 | 89.7 | 1.21
ARID1A | 2 | -1.03 | 61.4 | -0.751
ARID1A | 3 | -0.393 | 74.1 | -0.814
MMP27 | 1 | 0.498 | 91.8 | -0.248
MMP27 | 2 | 0.0255 | 82.4 | -0.649
MMP27 | 3 | -1.59 | 50.3 | -1.42
SIRT4 | 1 | -0.272 | 76.5 | -0.429
SIRT4 | 2 | 2.63 | 134 | 1.48
SIRT4 | 3 | 0.366 | 89.2 | 0.593
SPATA33 | 1 | 0.446 | 90.8 | 0.233
SPATA33 | 2 | -0.135 | 79.2 | 0.21
SPATA33 | 3 | -0.0951 | 80 | -0.0818
CD44 | 1 | -0.259 | 76.7 | -0.138
CD44 | 2 | -0.64 | 69.2 | -0.165
CD44 | 3 | 0.319 | 88.2 | 0.152
DOK5 | 1 | 0.27 | 87.3 | 0.493
DOK5 | 2 | 1.87 | 119 | 1.22
DOK5 | 3 | -0.772 | 66.5 | -0.66
RTN4 | 1 | 0.463 | 91.1 | 0.0417
RTN4 | 2 | -0.11 | 79.7 | -0.332
RTN4 | 3 | 0.526 | 92.3 | 0.552

Not a retest: entries from further up.
gene | reagent | total luciferase, z-score | total luciferase, % of control | luciferase per cell, z-score
SIRT4 | 2 | 2.63 | 134 | 1.48
SIRT4 | 3 | 0.366 | 89.2 | 0.593
